Results taken from the supplement of paper PMC10849652.
The list shows a part of the results.

Protein sequences, listed by entry. Tags and fused reporters are not part of them. Lines headed by an entry give the natural chain unless they say otherwise; changes in a name come on top.
UniProt P33908: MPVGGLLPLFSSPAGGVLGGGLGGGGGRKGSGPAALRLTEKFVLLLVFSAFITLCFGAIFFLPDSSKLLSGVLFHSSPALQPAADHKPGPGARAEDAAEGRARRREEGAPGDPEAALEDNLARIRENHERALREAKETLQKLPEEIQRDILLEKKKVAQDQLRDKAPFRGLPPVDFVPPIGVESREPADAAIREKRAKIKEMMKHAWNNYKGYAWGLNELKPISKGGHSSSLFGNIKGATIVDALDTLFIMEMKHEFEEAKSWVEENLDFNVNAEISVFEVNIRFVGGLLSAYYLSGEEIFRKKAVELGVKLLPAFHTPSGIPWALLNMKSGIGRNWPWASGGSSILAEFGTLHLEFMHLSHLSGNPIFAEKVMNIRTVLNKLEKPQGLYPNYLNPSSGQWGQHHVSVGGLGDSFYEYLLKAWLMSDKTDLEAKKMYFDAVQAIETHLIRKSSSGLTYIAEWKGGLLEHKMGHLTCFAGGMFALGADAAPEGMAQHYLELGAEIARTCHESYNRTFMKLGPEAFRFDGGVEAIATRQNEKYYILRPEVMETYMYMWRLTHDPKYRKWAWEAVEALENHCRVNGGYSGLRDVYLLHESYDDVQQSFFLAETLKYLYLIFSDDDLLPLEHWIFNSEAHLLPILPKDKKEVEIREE
UniProt P62312: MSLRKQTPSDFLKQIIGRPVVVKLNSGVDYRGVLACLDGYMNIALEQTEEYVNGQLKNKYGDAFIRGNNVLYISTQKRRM
UniProt P20645: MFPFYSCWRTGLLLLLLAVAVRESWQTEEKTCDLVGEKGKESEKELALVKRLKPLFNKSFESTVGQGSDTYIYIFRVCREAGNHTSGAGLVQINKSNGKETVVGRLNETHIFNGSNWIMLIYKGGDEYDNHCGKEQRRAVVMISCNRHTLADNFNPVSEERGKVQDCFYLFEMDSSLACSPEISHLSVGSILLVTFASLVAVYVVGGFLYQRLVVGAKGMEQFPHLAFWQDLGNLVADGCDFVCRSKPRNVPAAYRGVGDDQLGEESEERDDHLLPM
UniProt Q16659, whole entry, looked up: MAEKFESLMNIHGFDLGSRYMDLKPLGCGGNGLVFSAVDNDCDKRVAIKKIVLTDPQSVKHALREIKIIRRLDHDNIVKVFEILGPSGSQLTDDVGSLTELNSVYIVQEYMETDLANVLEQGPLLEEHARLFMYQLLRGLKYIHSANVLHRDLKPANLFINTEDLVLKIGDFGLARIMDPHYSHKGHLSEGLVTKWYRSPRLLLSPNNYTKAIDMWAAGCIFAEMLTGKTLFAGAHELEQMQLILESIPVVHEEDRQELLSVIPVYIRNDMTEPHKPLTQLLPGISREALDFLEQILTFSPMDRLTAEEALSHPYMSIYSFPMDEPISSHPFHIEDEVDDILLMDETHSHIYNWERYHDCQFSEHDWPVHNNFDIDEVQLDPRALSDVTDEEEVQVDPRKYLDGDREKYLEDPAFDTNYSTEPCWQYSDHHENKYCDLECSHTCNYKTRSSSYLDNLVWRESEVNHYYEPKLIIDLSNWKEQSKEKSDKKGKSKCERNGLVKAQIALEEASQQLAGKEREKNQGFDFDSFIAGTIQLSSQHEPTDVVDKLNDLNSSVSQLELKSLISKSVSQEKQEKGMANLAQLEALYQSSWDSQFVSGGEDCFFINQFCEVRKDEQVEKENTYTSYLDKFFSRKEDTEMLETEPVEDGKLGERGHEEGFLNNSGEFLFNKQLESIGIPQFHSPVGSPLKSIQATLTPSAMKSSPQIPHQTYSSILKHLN
UniProt Q9Y333: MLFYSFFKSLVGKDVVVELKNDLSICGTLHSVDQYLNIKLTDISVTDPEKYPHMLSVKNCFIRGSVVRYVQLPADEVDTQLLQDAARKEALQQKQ
UniProt Q3MHD2: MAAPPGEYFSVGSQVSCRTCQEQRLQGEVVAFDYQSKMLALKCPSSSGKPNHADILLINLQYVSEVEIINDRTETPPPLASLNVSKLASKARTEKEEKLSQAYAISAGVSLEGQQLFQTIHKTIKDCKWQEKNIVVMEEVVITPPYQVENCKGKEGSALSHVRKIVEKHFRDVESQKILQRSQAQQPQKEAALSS
UniProt O60337: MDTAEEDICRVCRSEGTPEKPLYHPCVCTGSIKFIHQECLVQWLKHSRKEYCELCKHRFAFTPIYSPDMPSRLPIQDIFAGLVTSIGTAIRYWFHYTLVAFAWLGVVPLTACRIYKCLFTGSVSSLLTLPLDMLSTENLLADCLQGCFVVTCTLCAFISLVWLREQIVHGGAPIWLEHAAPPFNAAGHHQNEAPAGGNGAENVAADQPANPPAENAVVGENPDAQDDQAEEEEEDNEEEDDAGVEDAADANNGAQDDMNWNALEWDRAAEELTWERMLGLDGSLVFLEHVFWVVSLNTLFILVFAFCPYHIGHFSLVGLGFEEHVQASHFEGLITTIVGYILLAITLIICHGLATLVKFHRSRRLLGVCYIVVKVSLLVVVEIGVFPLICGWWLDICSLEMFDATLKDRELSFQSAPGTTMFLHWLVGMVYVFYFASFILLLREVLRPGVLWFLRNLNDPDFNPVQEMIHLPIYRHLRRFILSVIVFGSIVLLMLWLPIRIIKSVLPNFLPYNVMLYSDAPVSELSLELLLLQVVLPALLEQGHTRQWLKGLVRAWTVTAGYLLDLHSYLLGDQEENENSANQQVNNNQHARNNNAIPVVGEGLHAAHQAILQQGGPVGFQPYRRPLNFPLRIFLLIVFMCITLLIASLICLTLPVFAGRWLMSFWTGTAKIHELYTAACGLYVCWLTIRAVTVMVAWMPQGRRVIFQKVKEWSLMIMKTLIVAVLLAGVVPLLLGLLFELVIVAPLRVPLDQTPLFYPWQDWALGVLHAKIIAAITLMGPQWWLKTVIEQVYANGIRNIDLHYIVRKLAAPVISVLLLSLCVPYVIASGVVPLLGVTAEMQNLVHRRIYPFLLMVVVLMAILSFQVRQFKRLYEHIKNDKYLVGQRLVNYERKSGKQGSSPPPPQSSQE
UniProt Q9HD34: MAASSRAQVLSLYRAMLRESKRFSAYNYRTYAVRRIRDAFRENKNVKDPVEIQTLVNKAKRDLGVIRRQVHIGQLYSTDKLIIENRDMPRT
UniProt P28482, whole entry, looked up: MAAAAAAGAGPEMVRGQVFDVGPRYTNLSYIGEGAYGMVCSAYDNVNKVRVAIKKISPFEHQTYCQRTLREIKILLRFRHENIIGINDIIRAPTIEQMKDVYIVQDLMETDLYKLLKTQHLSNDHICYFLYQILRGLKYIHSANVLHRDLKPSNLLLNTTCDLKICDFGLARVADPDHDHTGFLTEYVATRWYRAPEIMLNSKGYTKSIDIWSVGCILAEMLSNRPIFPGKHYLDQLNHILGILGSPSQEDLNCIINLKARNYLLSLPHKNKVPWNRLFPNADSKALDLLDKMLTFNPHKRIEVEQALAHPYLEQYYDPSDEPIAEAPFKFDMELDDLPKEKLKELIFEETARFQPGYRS
UniProt O15116: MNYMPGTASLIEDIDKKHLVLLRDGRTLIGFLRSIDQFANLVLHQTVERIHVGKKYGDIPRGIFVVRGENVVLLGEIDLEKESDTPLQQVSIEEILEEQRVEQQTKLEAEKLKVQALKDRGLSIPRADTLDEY
UniProt Q7L5Y9: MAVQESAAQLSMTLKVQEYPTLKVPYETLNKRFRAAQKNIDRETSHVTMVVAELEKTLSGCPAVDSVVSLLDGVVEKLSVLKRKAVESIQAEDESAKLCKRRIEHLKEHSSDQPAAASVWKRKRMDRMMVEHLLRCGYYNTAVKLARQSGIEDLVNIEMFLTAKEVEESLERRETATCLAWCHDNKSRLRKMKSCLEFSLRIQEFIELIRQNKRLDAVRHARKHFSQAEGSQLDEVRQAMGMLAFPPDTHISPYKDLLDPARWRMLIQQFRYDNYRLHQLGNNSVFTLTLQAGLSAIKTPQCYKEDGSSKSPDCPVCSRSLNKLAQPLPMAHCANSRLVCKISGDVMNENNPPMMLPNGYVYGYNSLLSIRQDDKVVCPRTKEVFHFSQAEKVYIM
UniProt Q6ZN28: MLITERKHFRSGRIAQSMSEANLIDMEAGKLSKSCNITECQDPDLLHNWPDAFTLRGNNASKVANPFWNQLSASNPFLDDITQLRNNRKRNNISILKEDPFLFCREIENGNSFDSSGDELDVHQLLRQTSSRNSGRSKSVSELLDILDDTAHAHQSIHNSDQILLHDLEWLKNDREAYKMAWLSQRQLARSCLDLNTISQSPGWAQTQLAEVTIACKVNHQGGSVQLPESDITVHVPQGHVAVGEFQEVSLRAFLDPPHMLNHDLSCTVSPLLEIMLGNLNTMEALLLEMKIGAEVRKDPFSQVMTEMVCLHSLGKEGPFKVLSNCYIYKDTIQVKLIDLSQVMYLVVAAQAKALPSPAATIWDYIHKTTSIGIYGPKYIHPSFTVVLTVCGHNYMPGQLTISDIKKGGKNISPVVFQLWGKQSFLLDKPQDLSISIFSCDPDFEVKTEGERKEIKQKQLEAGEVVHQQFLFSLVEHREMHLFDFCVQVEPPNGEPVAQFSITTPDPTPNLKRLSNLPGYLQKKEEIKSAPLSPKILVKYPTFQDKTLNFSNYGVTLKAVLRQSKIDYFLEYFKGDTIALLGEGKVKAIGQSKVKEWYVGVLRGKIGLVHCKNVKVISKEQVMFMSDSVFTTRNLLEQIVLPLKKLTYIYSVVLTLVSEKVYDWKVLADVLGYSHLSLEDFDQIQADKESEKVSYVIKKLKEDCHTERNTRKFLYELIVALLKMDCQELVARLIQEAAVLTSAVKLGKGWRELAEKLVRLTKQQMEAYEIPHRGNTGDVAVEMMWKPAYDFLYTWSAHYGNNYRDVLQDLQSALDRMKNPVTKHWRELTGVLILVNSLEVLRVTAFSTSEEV
UniProt Q5VWZ2: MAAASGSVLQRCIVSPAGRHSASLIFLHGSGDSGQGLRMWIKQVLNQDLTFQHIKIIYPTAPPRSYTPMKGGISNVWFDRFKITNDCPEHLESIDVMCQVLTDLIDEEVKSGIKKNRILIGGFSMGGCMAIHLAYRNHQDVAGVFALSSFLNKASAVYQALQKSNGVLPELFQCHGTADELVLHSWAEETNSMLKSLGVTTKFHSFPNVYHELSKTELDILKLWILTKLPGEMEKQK
UniProt Q7Z3D4: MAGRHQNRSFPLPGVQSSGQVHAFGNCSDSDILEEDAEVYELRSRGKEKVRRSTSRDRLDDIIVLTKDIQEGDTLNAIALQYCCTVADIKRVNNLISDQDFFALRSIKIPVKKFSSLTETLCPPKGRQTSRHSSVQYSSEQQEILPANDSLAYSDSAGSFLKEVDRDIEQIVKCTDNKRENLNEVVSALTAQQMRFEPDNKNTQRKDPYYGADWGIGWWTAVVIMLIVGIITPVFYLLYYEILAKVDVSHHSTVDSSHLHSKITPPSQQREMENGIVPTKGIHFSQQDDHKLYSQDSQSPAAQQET
UniProt Q3KQU3: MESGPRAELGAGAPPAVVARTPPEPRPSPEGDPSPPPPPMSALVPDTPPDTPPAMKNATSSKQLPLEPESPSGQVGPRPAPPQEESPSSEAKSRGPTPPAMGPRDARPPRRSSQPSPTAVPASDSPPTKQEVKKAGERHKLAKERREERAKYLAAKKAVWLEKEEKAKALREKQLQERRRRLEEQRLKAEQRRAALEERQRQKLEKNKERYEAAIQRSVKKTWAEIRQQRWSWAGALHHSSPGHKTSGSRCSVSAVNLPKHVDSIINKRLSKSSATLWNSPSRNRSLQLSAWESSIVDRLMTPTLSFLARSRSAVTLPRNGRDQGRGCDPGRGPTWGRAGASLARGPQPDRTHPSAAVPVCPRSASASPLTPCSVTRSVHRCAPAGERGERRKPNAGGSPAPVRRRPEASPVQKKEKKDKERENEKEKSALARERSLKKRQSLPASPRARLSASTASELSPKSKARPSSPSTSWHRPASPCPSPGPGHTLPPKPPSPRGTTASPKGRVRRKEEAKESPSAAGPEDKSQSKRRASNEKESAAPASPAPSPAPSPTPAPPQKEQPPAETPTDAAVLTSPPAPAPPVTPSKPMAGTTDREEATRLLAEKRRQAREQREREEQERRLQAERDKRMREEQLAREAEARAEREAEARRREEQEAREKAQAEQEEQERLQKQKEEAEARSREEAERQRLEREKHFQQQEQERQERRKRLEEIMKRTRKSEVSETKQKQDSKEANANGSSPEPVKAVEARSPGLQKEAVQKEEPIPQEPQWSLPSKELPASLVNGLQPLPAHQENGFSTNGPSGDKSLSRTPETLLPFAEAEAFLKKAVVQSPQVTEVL

Legend:
Test in all cases: log2 fold change, soluble protein after heating vs DMSO (PISA); higher = thermal stabilisation; K562 cells, 10 uM, 30 min; active = over 0.2 and 3.5 SD of the protein, either way, in both replicates (recomputed)
[1] = compound: CC[C@@H]1C(=O)N(C)c2cnc(Nc3ccc(C(=O)NC4CCN(C)CC4)cc3OC)nc2N1C1CCCC1
Outline: (§1)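 K562 cells at 2×10^6 cells/mL were exposed to 10 μM compound for 30 min, then aliquots were heated for 3 min across 48°C-58°C, pooled, and extracted in PBS containing 0.5% NP-40 at 4°C. The supernatant after 21,000xg for 90 min was taken as soluble protein and measured by TMTpro 16plex LC-MS/MS with channel sums equalised. Thermal stability is reported relative to control samples, with values from duplicates. Fold changes are given on a log2 scale.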

volasertib = compound: CC[C@@H]1C(=O)N(C)c2cnc(Nc3ccc(C(=O)N[C@H]4CC[C@H](N5CCN(CC6CC6)CC5)CC4)cc3OC)nc2N1C(C)C [volasertib]
Outline: as §1

[2] = compound: CC[C@H](C)N1C=C(C2=C(C=C(C=C21)C3=CN=C(C=C3)N4CCNCC4)C(=O)NCC5=C(C=C(NC5=O)C)C)C
Outline: as §1

epoxomicin = compound: CC[C@H](C)[C@@H](C(=O)N[C@@H]([C@@H](C)O)C(=O)N[C@@H](CC(C)C)C(=O)[C@]1(CO1)C)NC(=O)[C@H]([C@@H](C)CC)N(C)C(=O)C [epoxomicin]
Outline: as §1

[3] = compound: CCn1c(C(=O)N(C2CC2)C2CC2)cc2c3c(ncn3C)c(Nc3cc(C)n(C)n3)nc21
Outline: as §1

[4] = compound: CCn1cc(-c2ccnc3[nH]c(-c4cccc(CN(C)C)c4)cc23)c(-c2ccc(NC(=O)N(C)C)cc2)n1
Outline: as §1

[5] = compound: CN(C)CC(=O)Nc1ccc2[nH]c(=O)c3ccccc3c2c1
Outline: as §1

rosiglitazone = compound: CN(CCOC1=CC=C(C=C1)C[C@H]2C(=O)NC(=O)S2)C3=CC=CC=N3 (racemic) [rosiglitazone]
Outline: as §1

[6] = compound: CN1C2=C(C3=C1C(=O)N(N=C3)CC4=CC(=CC=C4)N)SC(=C2)S(=O)C
Outline: as §1

[7] = compound: CN1CCC(CNc2ccc3ncc(-c4cccc(OC(F)(F)F)c4)n3n2)CC1
Outline: as §1

Measured: log2 fold change

LSM3 (UniProt P62310)
inactive: [1] 0.007 | volasertib 0.01 | [2] -0.069 | epoxomicin -0.02 | [3] 0.002 | [4] -0.12 | [5] 0.02 | rosiglitazone -0.056 | [6] -0.044 | [7] 0.102

MAN1A1 (UniProt P33908)
inactive: [1] 0.03 | volasertib -0.012 | [2] -0.028 | epoxomicin -0.018 | [3] 0 | [4] 0.041 | [5] -0.035 | rosiglitazone 0.009 | [6] -0.048 | [7] 0.079

MAN1B1 (UniProt Q9UKM7)
inactive: [1] -0.065 | volasertib -0.179 | [2] 0.027 | epoxomicin -0.011 | [3] -0.049 | [4] -0.05 | [5] 0.021 | rosiglitazone 0.064 | [6] -0.018 | [7] -0.175

LSM6 (UniProt P62312)
inactive: [1] -0.02 | volasertib 0.065 | [2] -0.05 | epoxomicin -0.079 | [3] 0.024 | [4] -0.096 | [5] -0.005 | rosiglitazone -0.033 | [6] -0.063 | [7] 0.265

M6PR (UniProt P20645)
inactive: [1] 0.02 | volasertib 0 | [2] -0.04 | epoxomicin 0.046 | [3] -0.037 | [4] -0.061 | [5] -0.014 | rosiglitazone -0.039 | [6] 0.007 | [7] -0.009

LRSAM1 (UniProt Q6UWE0)
inactive: [1] -0.085 | volasertib -0.204 | [2] 0.028 | epoxomicin 0.077 | [3] -0.024 | [4] -0.052 | [5] -0.02 | rosiglitazone 0.02 | [6] -0.002 | [7] -0.172

MAPK6 (UniProt Q16659)
inactive: [1] -0.022 | volasertib 0.102 | [2] 0.052 | epoxomicin 0.114 | [3] -0.033 | [4] -0.197 | [5] 0.165 | rosiglitazone -0.088 | [6] 0.091 | [7] 0.067

LSM2 (UniProt Q9Y333)
inactive: [1] 0.057 | volasertib 0.009 | [2] -0.027 | epoxomicin 0.007 | [3] 0.042 | [4] 0.004 | [5] 0.014 | rosiglitazone 0.006 | [6] -0.061 | [7] 0.031

LSM12 isoform 2 (UniProt Q3MHD2)
inactive: [1] 0.01 | volasertib -0.027 | [2] -0.016 | epoxomicin 0.04 | [3] -0.109 | [4] 0.115 | [5] 0.004 | rosiglitazone -0.067 | [6] 0.011 | [7] 0.089

MAP1A isoform 2 (UniProt P78559)
inactive: [1] 0.086 | volasertib 0.208 | [2] 0 | epoxomicin -0.078 | [3] 0.013 | [4] 0.024 | [5] -0.031 | rosiglitazone -0.003 | [6] 0.123 | [7] 0.026

MARCHF6 (UniProt O60337)
inactive: [1] -0.005 | volasertib -0.125 | [2] 0.039 | epoxomicin 0.171 | [3] 0.033 | [4] -0.011 | [5] -0.017 | rosiglitazone -0.004 | [6] -0.029 | [7] -0.21

LYRM4 (UniProt Q9HD34)
inactive: [1] 0.03 | volasertib 0.005 | [2] 0.022 | epoxomicin 0.075 | [3] 0.008 | [4] -0.014 | [5] 0 | rosiglitazone -0.063 | [6] -0.106 | [7] 0.072

MAN1A2 (UniProt O60476)
inactive: [1] -0.035 | volasertib -0.116 | [2] 0.038 | epoxomicin 0.007 | [3] -0.011 | [4] 0.032 | [5] -0.021 | rosiglitazone 0.006 | [6] -0.024 | [7] 0.013

Reprinted at random: 2 records from the list.
MARCHF6 (UniProt O60337)
inactive: [1] -0.005 | volasertib -0.125 | [2] 0.039 | epoxomicin 0.171 | [3] 0.033 | [4] -0.011 | [5] -0.017 | rosiglitazone -0.004 | [6] -0.029 | [7] -0.21

LYRM4 (UniProt Q9HD34)
inactive: [1] 0.03 | volasertib 0.005 | [2] 0.022 | epoxomicin 0.075 | [3] 0.008 | [4] -0.014 | [5] 0 | rosiglitazone -0.063 | [6] -0.106 | [7] 0.072

Following part

MAPK1 (UniProt P28482)
inactive: [1] 0.013 | volasertib 0.059 | [2] -0.025 | epoxomicin 0.045 | [3] 0.001 | [4] 0.013 | [5] -0.004 | rosiglitazone 0.01 | [6] -0.05 | [7] -0.012

LSM1 (UniProt O15116)
inactive: [1] 0.014 | volasertib 0.066 | [2] -0.053 | epoxomicin -0.018 | [3] 0.002 | [4] -0.074 | [5] 0.01 | rosiglitazone 0.045 | [6] -0.046 | [7] 0

LRRC8A (UniProt Q8IWT6)
inactive: [1] 0.11 | volasertib 0.066 | [2] -0.001 | epoxomicin -0.103 | [3] 0.001 | [4] 0.101 | [5] 0.033 | rosiglitazone 0.004 | [6] 0.184 | [7] 0.07

MAEA (UniProt Q7L5Y9)
inactive: [1] -0.009 | volasertib -0.13 | [2] 0.007 | epoxomicin 0.022 | [3] -0.001 | [4] 0.005 | [5] -0.049 | rosiglitazone 0.04 | [6] 0.028 | [7] 0.009

LYAR (UniProt Q9NX58)
inactive: [1] 0.306 | volasertib 0.377 | [2] -0.009 | epoxomicin -0.502 | [3] 0.119 | [4] 0.351 | [5] -0.207 | rosiglitazone -0.177 | [6] 0.383 | [7] 0.608

MACC1 (UniProt Q6ZN28)
inactive: [1] 0.005 | volasertib -0.036 | [2] -0.173 | epoxomicin 0.033 | [3] -0.027 | [4] -0.04 | [5] -0.008 | rosiglitazone 0.027 | [6] -0.121 | [7] -0.084

LYPLAL1 (UniProt Q5VWZ2)
inactive: [1] 0.031 | volasertib 0.04 | [2] 0.004 | epoxomicin 0.075 | [3] -0.02 | [4] -0.055 | [5] 0 | rosiglitazone 0.124 | [6] -0.068 | [7] -0.054

MAPK3 (UniProt P27361)
inactive: [1] -0.007 | volasertib -0.022 | [2] 0.013 | epoxomicin 0.064 | [3] 0.003 | [4] -0.037 | [5] 0.072 | rosiglitazone 0.018 | [6] 0.063 | [7] 0.064

LZIC isoform 2 (UniProt Q8WZA0)
inactive: [1] 0.007 | volasertib 0.092 | [2] -0.016 | epoxomicin 0.047 | [3] 0.027 | [4] -0.023 | [5] -0.014 | rosiglitazone 0.01 | [6] -0.047 | [7] -0.102

LYRM2 (UniProt Q9NU23)
inactive: [1] 0 | volasertib -0.035 | [2] -0.007 | epoxomicin -0.014 | [3] -0.068 | [4] 0.02 | [5] 0.028 | rosiglitazone 0.023 | [6] -0.074 | [7] 0.007

LYPLA1 (UniProt O75608)
inactive: [1] 0.017 | volasertib -0.025 | [2] -0.001 | epoxomicin 0.032 | [3] 0.053 | [4] -0.027 | [5] 0.018 | rosiglitazone 0.021 | [6] -0.048 | [7] 0.035

MARS (UniProt P56192)
inactive: [1] -0.007 | volasertib -0.078 | [2] 0.067 | epoxomicin -0.018 | [3] -0.009 | [4] 0.005 | [5] -0.001 | rosiglitazone -0.014 | [6] 0.049 | [7] -0.067

LYSMD3 (UniProt Q7Z3D4)
inactive: [1] -0.092 | volasertib -0.1 | [2] -0.024 | epoxomicin -0.009 | [3] 0.054 | [4] 0 | [5] -0.016 | rosiglitazone -0.044 | [6] -0.061 | [7] -0.075

MAK16 (UniProt Q9BXY0)
inactive: [1] 0.111 | volasertib 0.017 | [2] -0.001 | epoxomicin -0.146 | [3] 0.046 | [4] 0.058 | [5] -0.139 | rosiglitazone -0.114 | [6] 0.219 | [7] 0.244

MAGEB1 (UniProt P43366)
inactive: [1] 0.104 | volasertib 0.12 | [2] 0.025 | epoxomicin -0.306 | [3] 0.024 | [4] 0.183 | [5] -0.052 | rosiglitazone -0.075 | [6] 0.339 | [7] -0.038

MAP7D1 (UniProt Q3KQU3)
inactive: [1] 0.206 | volasertib 0.117 | [2] 0.022 | epoxomicin -0.186 | [3] -0.062 | [4] 0.154 | [5] -0.083 | rosiglitazone -0.092 | [6] 0.353 | [7] 0.206
